Screening data, single-dose tests

Sequences of proteins named here, by UniProt entry; tags and fusion partners are left off. Residues count along the entry.
UniProt Q8IDJ8, 1-583: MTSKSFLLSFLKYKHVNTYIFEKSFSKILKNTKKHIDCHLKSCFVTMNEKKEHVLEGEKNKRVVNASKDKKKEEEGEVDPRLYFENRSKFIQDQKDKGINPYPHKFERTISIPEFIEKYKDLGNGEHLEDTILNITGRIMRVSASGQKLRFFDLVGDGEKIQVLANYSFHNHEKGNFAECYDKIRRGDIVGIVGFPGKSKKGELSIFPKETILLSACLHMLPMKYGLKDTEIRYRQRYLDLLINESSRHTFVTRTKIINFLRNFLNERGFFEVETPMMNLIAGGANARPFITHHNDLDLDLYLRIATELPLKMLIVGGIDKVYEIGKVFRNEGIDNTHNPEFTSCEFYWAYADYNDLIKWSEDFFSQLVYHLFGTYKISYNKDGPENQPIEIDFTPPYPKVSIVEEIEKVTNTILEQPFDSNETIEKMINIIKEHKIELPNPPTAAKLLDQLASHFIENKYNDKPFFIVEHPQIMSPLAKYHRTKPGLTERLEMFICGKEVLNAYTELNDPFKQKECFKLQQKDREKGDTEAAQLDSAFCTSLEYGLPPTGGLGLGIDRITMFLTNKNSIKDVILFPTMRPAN

A: 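Assay of Toxoplasma gondii numbers, read through their beta-galactosidase reporter with a colour substrate. Compounds at 10 µM. Higher reads as fewer parasites (inferred from which compounds were picked for retests). Size under these conditions: about 67,000 compounds, about 260 of them at 50% or above in at least one test.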
B: 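Whole-parasite assay of Trypanosoma brucei over 72 hours; the read-out is not stated. Tested at 30 µM. Higher reads as stronger inhibition (inferred: compounds with an IC50 in retests scored well above the rest). Values scatter widely below zero; nearly all retest evidence comes from the higher of the two concentrations used. About 64,000 compounds were tested under these conditions; 1.5% (about 940) showed 50% or more at least once.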
C: 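Cell assay of Leishmania donovani living inside macrophages; the read-out is not stated. Compounds at 30 µM. Higher reads as stronger inhibition (inferred: compounds with an IC50 in retests scored well above the rest). Of about 69,000 compounds tested this way, about 1,000 (1.5%) reached 50% or more in at least one test.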
D: 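Enzyme assay of the cytosolic lysyl-tRNA synthetase in 384-well plates, read by luminescence. Target: Lysine-tRNA ligase, Plasmodium falciparum 3D7 (UniProt Q8IDJ8). Concentration: 30 µM. Higher reads as stronger inhibition, judged from the few compounds that gave an IC50. About 69,000 compounds were tested under these conditions; 0.071% (about 49) showed 50% or more at least once.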

The filed quantity is “Percent Effect” (%). The controls that fix the scale are not given in the record; negative values are as filed. This is an unselected part of the compounds tested. A dash means the value is not listed here; it may have been measured.

Compound	A	B	C	D
COCCC(=O)N1CCN(CC2CC2)c2ncccc2C1	-6.173	-19.12	1.105	-3.323
Cc1cccc(CN2CCCCC23CCNC3)n1 (stereo unspecified)	-	-	-	5.105
CC(C)CN1CCn2nc(CNc3ncnc4[nH]ccc34)cc2C1	2.213	-6.508	5.183	-6.149
CC1CCCCN1C(=O)c1ccn(COc2ccc(F)cc2)n1 (stereo unspecified)	3.838	7.089	-15.68	3.812
Cc1noc(C)c1CNC(=O)C(C)Oc1ccccc1F (stereo unspecified)	-9.899	-22.25	4.359	9.618
[H][C@@]12CS(=O)(=O)C[C@]1([H])N(S(=O)(=O)N1CCCCCC1)CCN2CC	-2.283	-27.1	-12.27	-
CC(C)(C)OC(=O)NCCNC(=O)c1ccc(-c2ccco2)[nH]c1=O	29.14	-25.25	19.38	-0.0494
COCC1CCCN(C(=O)c2ccccc2NCc2cccnc2)C1 (stereo unspecified)	-7.58	-57.08	-22.05	-2.226
CSCCNC(=O)C1CCC(=O)N(C2CCCC2)C1 (stereo unspecified)	0.4042	-23.01	-16.83	4.4
COc1ccc(CNC(=O)NCc2ccc(C)cc2)cn1	-4.279	-21.35	17.46	2.519
CCC(C)NC(=O)Nc1ccc(CN2CCOC2=O)cc1 (stereo unspecified)	-7.153	-38.12	-11.33	0.2462
Cc1nc(C)n(CC2CCCN2Cc2nc(-c3ccsc3)no2)n1 (stereo unspecified)	-3.687	-12.7	-0.4536	-2.247
Cc1nnsc1C(=O)N(C)Cc1nc(-c2ccccn2)no1	3.211	-88.84	-10.65	7.13
CCN1CC2(CC1=O)CN(Cc1cnn(C)c1)CCN(C(C)=O)C2.O=C(O)C(F)(F)F (stereo unspecified)	-4.029	-1.856	8.348	-
Cn1cc(CN2CCCC(CCc3ccccc3C(F)(F)F)C2)cn1 (stereo unspecified)	11.98	-18.52	39.9	2.948
CC(C)N(Cc1ccccn1)S(=O)(=O)N1CCCC1c1ccco1 (stereo unspecified)	5.725	-	-12.49	1.484
O=C(Cc1ccsc1)N1C[C@@H]2OCCN(CC3CC3)[C@@H]2C1	-	-	-	1.474
O=C(O)C(F)(F)F.O=C(O)C(F)(F)F.[H][C@]12C[C@@H](Cn3cncn3)N(C(C)=O)[C@@]1([H])CCN(Cc1cccnc1)C2	5.049	-6.649	20	-
CN(Cc1n[nH]c(=O)n1Cc1ccco1)S(C)(=O)=O	-1.868	-13.62	-5.116	4.259
O=C([C@@H]1COC[C@H]2CN(CC3CCCC3)C[C@H]21)N1CCOCC1	-	-	-	3.331
O=C(CCn1ccc2cc(Br)ccc21)NCc1ccc(C(=O)O)cc1	2.765	12.28	4.898	6.396
Cc1cc2cc(Nc3c(C#N)c(=O)n(C)c(=O)n3C)ccc2[nH]1	3.188	-51.46	8.97	7.931
CN(C)C(=O)c1cccc(C2CNCCN2C)c1 (stereo unspecified)	-2.366	4.296	9.614	-0.1708
c1cncc(CN2CCCCC2c2ccc(Nc3cnccn3)nc2)c1 (stereo unspecified)	-5.296	16.06	3.652	1.047
c1csc(-c2noc(CNCCn3cccn3)n2)c1	-3.143	-3.048	18.52	0.8996
CN(C)CC1CN(C(=O)Cc2ccccc2)Cc2nccn2C1 (stereo unspecified)	-	-	-	-2.031
O=C(O)C(F)(F)F.c1ccc(C[C@H]2CN(C3CCOCC3)CC[C@H]2OCC2CC2)cc1	12.4	1.295	14.89	-
COc1ccc(C(C)NC(=O)Nc2nccs2)cc1OC (stereo unspecified)	20.16	-5.556	35.59	3.79
COCCCN(Cc1ccncc1)C(=O)CSc1ccc(F)cc1	-7.876	2.063	31.7	1.255
O=C(O)C(F)(F)F.O=C(O)C(F)(F)F.[H][C@@]12CCN(c3ncccn3)[C@@]1([H])CCN2CC(=O)N(C)C	0.308	-11.67	24.01	-
Cn1cnc2ccc(NC(=O)CC3CCN(S(C)(=O)=O)CC3)cc21	2.729	-25.04	3.213	-0.6118
CS(=O)(=O)N1Cc2cnn(CC3CC3)c2C(COCC2CC2)C1 (stereo unspecified)	-	-	-	4.656
CN(C)c1cc(CNC(=O)c2cccnc2O)ccn1	-24.15	-	14.24	2.885
O=C([C@@H]1COC[C@H]2CN(C3CCOCC3)C[C@H]21)N1CCOCC1	-	-	-	5.852
Cc1n[nH]c(SCC(=O)NC(c2ccccn2)C(C)C)n1 (stereo unspecified)	-1.39	-5.666	13.05	2.182
[H][C@@]12C[C@H](C)O[C@]1([H])CCN(C(=O)C1=CCCC1)C2	-27.48	0.2415	20.3	-
Cc1cccnc1CNC(=O)NC(C)Cc1c(C)nn(C)c1C (stereo unspecified)	-4.234	-48.14	11.27	4.726
Cc1nn(C)c(C)c1CN1CCN(CC2(O)CCCN(C)C2)CC1 (stereo unspecified)	-15.73	0.2216	7.57	7.624
COc1cccc(CCC(=O)N2CCCCC2Cn2cccn2)c1 (stereo unspecified)	-1.122	-8.218	7.1	2.719
O=C1COC2(CCN(Cc3ccoc3)CC2)CN1	-	-	-	-2.918
CN(C)C(=O)CN1CC[C@H]2[C@H]1CCN2c1ncccn1	-	-	-	4.403
Cc1nn(C2CCCCC2)c2nc(C(C)(C)CN3CCOCC3)[nH]c12	7.895	6.01	30.83	0.1553
Cc1cc(NC2CC3(CCN(Cc4csc(C)n4)C3)C2)ncn1 (stereo unspecified)	9.409	-1.693	20.98	1.047
CCC1=N[C@@]2(CC[C@@H]3CN(S(=O)(=O)CC)C[C@@H]32)C(=O)N1CC	-	-	-	2.141
Cc1csc(CNc2cnn(CC(C)C)c2)n1	12.92	-12.59	24.06	3.705
CO[C@@H]1CCN(C(=O)c2ccccn2)[C@H]1Cc1ccccc1	-	-	-	5.272
COc1cc(C)nc(N2CCN(C(=O)CCc3ccncc3)CC2)n1	-20.49	-64.72	-11.96	-4.564
CN(C)S(=O)(=O)N1C[C@H]2C[C@H](C(=O)NCc3ccccc3)[C@@H](C1)O2	-	-	-	8.571
Cn1cc(C2CCCN2Cc2cscn2)cn1 (stereo unspecified)	-0.8709	-	1.392	-1.118
Cc1noc(C)c1CCNc1nccc(CCC(F)(F)F)n1	-1.183	-100.3	-5.938	2.878
COCCNc1cc(-c2cccc(C(=O)O)c2C)c2cc[nH]c2n1	17.01	-15.23	27.05	2.373
COc1ccc(CNc2ncc(-c3cc(C)no3)c(C(C)C)n2)cc1	-39.4	46.49	-0.4689	1.939
CC1=C(C#N)C(=O)N(C)C(=O)/C1=C\C1=Cc2ccccc2OC1	-8.809	-3.466	13.84	27.13

The last 6 entries again:

Compound,A,B,C,D
CN(C)S(=O)(=O)N1C[C@H]2C[C@H](C(=O)NCc3ccccc3)[C@@H](C1)O2,-,-,-,8.571
Cn1cc(C2CCCN2Cc2cscn2)cn1 (stereo unspecified),-0.8709,-,1.392,-1.118
Cc1noc(C)c1CCNc1nccc(CCC(F)(F)F)n1,-1.183,-100.3,-5.938,2.878
COCCNc1cc(-c2cccc(C(=O)O)c2C)c2cc[nH]c2n1,17.01,-15.23,27.05,2.373
COc1ccc(CNc2ncc(-c3cc(C)no3)c(C(C)C)n2)cc1,-39.4,46.49,-0.4689,1.939
CC1=C(C#N)C(=O)N(C)C(=O)/C1=C\C1=Cc2ccccc2OC1,-8.809,-3.466,13.84,27.13

Data taken from ChEMBL document CHEMBL3988442, “University of Dundee, Small-Polar-MMV Screening Library” (2021).